In patent US11787762B2, “Tetralin and tetrahydroquinoline compounds as inhibitors of HIF-2alpha” (ARCUS BIOSCIENCES, INC., priority 2020, dated 2023) one finds IC50 data, which are given here for three compounds.

By UniProt entry, the sequences of proteins in these tests, tags left out. Residues count along the entry.
UniProt Q99814, whole entry: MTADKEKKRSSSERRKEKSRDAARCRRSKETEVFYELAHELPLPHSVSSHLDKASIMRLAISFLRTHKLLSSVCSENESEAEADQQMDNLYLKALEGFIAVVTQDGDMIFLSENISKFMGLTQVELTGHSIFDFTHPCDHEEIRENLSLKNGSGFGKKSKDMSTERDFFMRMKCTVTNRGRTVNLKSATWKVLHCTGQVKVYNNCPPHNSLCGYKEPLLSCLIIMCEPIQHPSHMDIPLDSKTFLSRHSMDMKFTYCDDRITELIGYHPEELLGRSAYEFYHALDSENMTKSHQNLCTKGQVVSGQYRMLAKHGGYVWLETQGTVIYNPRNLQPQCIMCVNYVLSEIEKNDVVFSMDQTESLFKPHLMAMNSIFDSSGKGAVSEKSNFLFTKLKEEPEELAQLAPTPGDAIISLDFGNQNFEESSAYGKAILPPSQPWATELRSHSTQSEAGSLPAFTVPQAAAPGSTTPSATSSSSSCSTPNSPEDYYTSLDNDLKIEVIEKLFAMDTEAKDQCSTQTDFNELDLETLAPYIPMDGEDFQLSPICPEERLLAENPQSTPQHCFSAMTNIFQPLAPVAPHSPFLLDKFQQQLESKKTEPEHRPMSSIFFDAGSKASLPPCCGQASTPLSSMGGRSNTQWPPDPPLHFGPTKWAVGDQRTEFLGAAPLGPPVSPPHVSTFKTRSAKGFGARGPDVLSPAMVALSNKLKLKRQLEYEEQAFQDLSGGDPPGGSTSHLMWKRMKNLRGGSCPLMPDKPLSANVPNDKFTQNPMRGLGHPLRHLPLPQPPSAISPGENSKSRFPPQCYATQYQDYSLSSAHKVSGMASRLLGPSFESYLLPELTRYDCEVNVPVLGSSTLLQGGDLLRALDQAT
UniProt Q99814, 240-350 limits assumed: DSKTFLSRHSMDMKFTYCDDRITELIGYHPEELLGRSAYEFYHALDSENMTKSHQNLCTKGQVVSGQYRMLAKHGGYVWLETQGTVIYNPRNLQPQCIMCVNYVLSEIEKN

Assay [1] deals with Histidine tagged HIF-2α protein containing PAS-B domain (240-350) (Homo sapiens, UniProt Q99814). Briefly: HIF-2α Scintillation Proximity Assay (SPA) binding assay. The conditions noted are these: read-out: HIF-2α Scintillation Proximity Assay; Table 1; 50 nM HIF-2α protein, 25 nM 3H-tracer. As for the experimental part: HIF-2α Scintillation Proximity Assay (SPA) Binding Assay:
Tritium labeled compound N-(3-chlorophenyl)-4-nitro-2,1,3-benzoxadiazol-5-amine was obtained from American Radiolabeled Chemicals Inc. and copper chelate PVT SPA beads were from PerkinElmer (Cat #RPNQ0095). Histidine tagged HIF-2α protein containing PAS-B domain (240-350) was prepared and purified in house.
Compounds solubilized in DMSO were dispensed into a white 384-well polystyrene non-binding flat clear bottom plate (Greiner Bio-One, Cat #781903) using an HP D300 dispenser. Ten microliters of HIS-tagged HIF-2α protein in buffer (25 mM Tris-HCl, pH 7.4, 150 mM NaCl, 0.15% BSA and 0.001% Tween 20) was added to the compound wells and allowed to incubate for 1 hour at room temperature. Ten microliters of SPA bead mix were added to the wells and incubated for an additional 45 minutes, followed by 10 ul of ^3H-tracer solution. Final assay conditions comprised 50 nM HIF-2α protein, 25 nM radiolabeled tracer and 3 ug beads per well with compounds in 2% DMSO. The plate was read using a MicroBeta Microplate Counter (PerkinElmer) for luminescence detection. The IC50 values of the test compounds were determined from compound dose response curves fitted using a standard four parameter fit equation and are reported in Table 1, Table 2, and Table 3.
For orientation: In a scintillation proximity assay essentially only radioactivity close to the scintillant gives light.

Assay [2] addresses HIF-2α (Homo sapiens, UniProt Q99814). The experiment in a line: HIF-2α luciferase reporter assay in HIF-Luc-786-O cells. It is filed as cell-based. The note with it: read-out: HIF-2α Luciferase Assay, Table 1, 20 hours incubation. As for the experimental part:
Generation of HIF-2α Luciferase 786-O Cell Line:
Stable cell lines were generated by transducing 786-O cells (ATCC, CRL-1932) with Cignal Lenti HIF Luc Reporter lentivirus (CLS-007 L, Qiagen) according to the manufacturer's guidelines. In brief, 0.3×10^6 786-0 cells were transduced with lentivirus at a Multiplicity of Infection (MOI) of 25 for 24 hours. After transduction, cells were replenished with fresh RPMI 1640 Medium (Cat. No. 11875085, Thermo Fisher,) supplemented with 10% FBS (Cat. No. A3160502, Gibco), 2 mM GlutaMax (Cat. No. 35050-061, Invitrogen) and 100 units of penicillin and 100 μg of streptomycin/mL (Cat. No 15070063, Thermo Fisher) for another 24 hours. Antibiotic selection was performed in cell media containing 4 μg/mL of Puromycin. After 7 days of antibiotic selection, stable pools of surviving cells were expanded and used in a luciferase reporter assay.
HIF-2α Luciferase Reporter Assay:
On day one, 20 uL of HIF-Luc-786-0 cells in OptiMem (Cat. No. 31985088, Thermo Fisher) were seeded into each well of a 384 well white opaque plate (Corning 3570) and incubated at 37° C. and 5% CO2. Twenty microliters of 2× test compounds in OptiMem were added to cells after 4 hours of incubation. Final assay conditions comprised 20,000 cells per well in 1% DMSO with test compound concentrations ranging from 50 uM to 0 uM. After 20 hours incubation at 37° C. and 5% CO2, luciferase activity was determined using ONE-Glo Luciferase Assay Reagent (E6110, Promega) following the manufacture's recommended procedure. Briefly, 40 uL of ONE-Glo luciferase reagents were added to each well and luciferase signals were measured using an Envision 2102 Multilabel Reader. Percentage maximum activity in each test well was calculated based on DMSO (maximum activity) and no cell control wells (baseline activity). The IC50 values of the test compounds were determined from compound dose response curves fitted using a standard four parameter fit equation.
In general terms: A reporter such as luciferase makes a cellular process visible.

Structures were worked out from names or drawings and are uncertain. Some results are limits rather than exact numbers.

Take `CS(=O)(=O)c1ccc([C@H]2CCCc3cc(F)cc(C#N)c32)c2c1[C@H](O)[C@H](F)[C@H]2F`: the IC50 in assay [1] and in assay [2] was 0.1 to 1 µM throughout.
For the compound `CS(=O)(=O)c1ccc(N2CCCc3cc(F)cc(F)c32)c2c1C(O)C(F)(F)C2` (stereo not drawn), the IC50 in assay [1] and in assay [2] was above 1 µM each time.
In the case of `N#Cc1c(S(=O)(=O)C(F)(F)F)ccc(N2CCCc3cc(Cl)cc(F)c32)c1Cl`, the IC50 in assay [1] and in assay [2] was above 1 µM each time.
